Results taken from patent US12077508B2, “Inhibitors of the Notch transcriptional activation complex kinase (“NACK”) and methods for use of the same” (UNIVERSITY OF MIAMI, priority 2018, dated 2024).
For at least one compound, name, drawing or mass did not settle the structure.

System: Notch target genes
Experiment: RT-qPCR of Notch target genes in Notch/NACK-dependent cells
Assay type: cell-based, human
Details: compared to Z271-0326; FIGS. 13A-13D
Procedure: To assess the effect of NACK inhibitor on Notch target gene transcription, Notch/NACK-dependent cell lines were treated with NACK inhibitors. The cells were also treated with DAPT as a positive control. DMSO treated cells served as a vehicle control for comparison. Gene expression was normalized to HPRT, and TBP served as a negative control to validate normalization.
Reverse transcription and qPCR analysis were performed as described previously (See Weaver et al., Cancer Research 74, 4741-4751 (2014)). Gene expression was normalized to the TATA-binding protein (“TBP”) gene. As a control, hypoxanthine phosphoribosyltransferase 1 (“HPRT”) gene expression was also monitored.

## CC(=O)Nc1ccc(S(=O)(=O)N2CCC(c3ccn4ncc(C(=O)N5CC(C)CC(C)C5)c4c3)CC2)cc1 (stereo not shown) [Compound 7W, N-[4-({4-[3-(3,5-dimethylpiperidine-1-carbonyl)pyrazolo[1,5-a]pyridinyl]piperidin-1-yl}sulfonyl)phenyl]acetamide]
  down regulation of Notch target genes (q-PCR profile): does not show any effect in down regulating Notch target genes
